Measured data: PubChem BioAssay AID1259254 (NCATS, 2017)
In all, the deposit lists about 59,000 reagents; shown is a random part of them. In the full data, about 1,550 (2.6%) got an active call. 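G2 share is only a proxy for re-replication; each gene was hit by three separate siRNAs, and active genes were retested.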 The raw values are shown without normalisation. Unmarked entries are inactive. Reagents against one gene are numbered here. The record does not give: the amount of reagent.

- Purpose: 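Genome-wide screen for genes that prevent DNA re-replication in cancer cells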 (primary screen)
- System: human HCT116 colorectal cancer cells
- Reagents: single siRNA against human genes
- Time to read-out: 3 days
- Measured: 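Imaged Hoechst DNA stain sorts each cell into a cycle phase by DNA amount; per plate, G2 fraction set to 0% for non-targeting and 100% for GMNN siRNA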
- Reading the numbers: G2 robust z-score and G2 cells, % of GMNN control: higher = more G2 cells, more excess DNA replication; raw share of cells in G2: higher = larger share of cells with G2 DNA content
- Rule for the call: 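Active siRNAs have a G2 robust z of 5 or more median absolute deviations over the median, which in these data means about 38% or higher of GMNN control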

| target | reagent | G2 robust z-score | G2 cells, % of GMNN control | raw share of cells in G2 (%) |
| --- | --- | --- | --- | --- |
| YWHAEP7 | 1 | -0.652 | -1.62 | 3.05 |
| YWHAEP7 | 2 | 1.19 | 11.3 | 7.42 |
| YWHAEP7 | 3 | 0.152 | 4.04 | 4.49 |
| KLHDC4 | 1 | -0.825 | -2.84 | 2.59 |
| KLHDC4 | 2 | -0.274 | 1.04 | 4.71 |
| KLHDC4 | 3 | 3.01 | 24.1 | 11.2 |
| CCDC15 | 1 | 1.09 | 10.6 | 8.84 |
| CCDC15 | 2 | 3.05 | 24.4 | 15 |
| CCDC15 | 3 | -0.298 | 0.873 | 2.62 |
| KHDRBS3 | 1 | 0.0549 | 3.35 | 7.15 |
| KHDRBS3 | 2 | 0.11 | 3.74 | 5.05 |
| KHDRBS3 | 3 | 1.29 | 12 | 11.2 |
| ASPDH | 1 | -0.24 | 1.28 | 3.55 |
| ASPDH | 2 | 0.288 | 4.99 | 5.55 |
| ASPDH | 3 | 0.0026 | 2.99 | 4.55 |
| CPSF2 | 1 | -0.765 | -2.42 | 2.87 |
| CPSF2 | 2 | -1.38 | -6.75 | 2.89 |
| CPSF2 | 3 | 1.19 | 11.3 | 8.43 |
| SLC66A3 | 1 | -0.72 | -2.1 | 1.82 |
| SLC66A3 | 2 | 1.4 | 12.8 | 9 |
| SLC66A3 | 3 | -0.421 | 0.00316 | 3.1 |
| CHCHD2P9 | 1 | -0.798 | -2.65 | 2.78 |
| CHCHD2P9 | 2 | 0.8 | 8.59 | 6.41 |
| CHCHD2P9 | 3 | -0.525 | -0.73 | 2.81 |
| CREG2 | 1 | 3.95 | 30.8 | 14.6 |
| CREG2 | 2 | -0.517 | -0.668 | 2.74 |
| CREG2 | 3 | -0.502 | -0.568 | 2.58 |
| ZMPSTE24 | 1 | 4.79 | 36.7 | 18.3 |
| ZMPSTE24 | 2 | 0.293 | 5.03 | 6.69 |
| ZMPSTE24 | 3 | -0.202 | 1.55 | 4.49 |

Part of the list above in another layout.
CPSF2 #2
- G2 robust z-score: -1.38
- G2 cells, % of GMNN control: -6.75
- raw share of cells in G2 (%): 2.89

CPSF2 #3
- G2 robust z-score: 1.19
- G2 cells, % of GMNN control: 11.3
- raw share of cells in G2 (%): 8.43
